Measurements published in the supplement of paper PMC10670038.
± gives the standard deviation of the averaged measurements. This list holds what a sample rich in lowest values left over.

The compounds below were run on TE10 (assay: relative cell viability vs DMSO, compound + 0.2 uM CuET (fraction); TE10 is an esophageal squamous carcinoma line; higher = less cytotoxic). Conditions: 2 µM; co-treatment: CuET (bis(diethyldithiocarbamate)copper) 0.2 uM; 48 h.
Procedure: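 TE10 ESCC cells (1,000/well, 384-well plates) were treated with Selleck bioactive library compounds at 2 uM combined with 0.2 uM CuET (copper diethyldithiocarbamate) for 48 h. Viability was read by CellTiter-Glo and expressed relative to DMSO wells. Two technical replicates (A, B).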
With `O=C(O)C1=C[C@@H](O)[C@@H](O)[C@H](O)C1` [Shikimic Acid] the relative cell viability was 1.1 ± 0.056.
